## COc1ccc2cc([C@H](C)C(=O)O)ccc2c1
In ethanol, 293.2 K
  solubility (mole fraction): 0.0107
In ethanol, 298.2 K
  solubility (mole fraction): 0.0117
In ethanol, 303.2 K
  solubility (mole fraction): 0.0129
In ethanol, 308.2 K
  solubility (mole fraction): 0.0139
In ethanol, 313.2 K
  solubility (mole fraction): 0.0153
In ethylene glycol, 293.2 K
  solubility (mole fraction): 0.00304
In ethylene glycol, 298.2 K
  solubility (mole fraction): 0.0037
In ethylene glycol, 303.2 K
  solubility (mole fraction): 0.00438
In ethylene glycol, 308.2 K
  solubility (mole fraction): 0.00497
In ethylene glycol, 313.2 K
  solubility (mole fraction): 0.00562

From BigSolDB 2.1
